Some of these results come from one statement about several compounds together.
Test system: MCF-7/ADR cells
Assay: Cytotoxicity versus time of drug hydrolysis before addition to cells
Assay type: cell-based, human
Settings: 1 μmol equiv./L, drug added at t=0 min of standing in serum-free media containing 10% DMSO at 25° C.
Method: The results of these experiments are illustrated in FIG. 2. […] However, the dimeric formaldehyde conjugate of daunorubicin completely lost its effectiveness within 25 min of standing in an aqueous solution. […] This biphasic curve is probably due to the decay mechanism of the dimeric formaldehyde conjugate of doxorubicin to doxorubicin in aqueous solution.
The drug solution was diluted 1:100 with DMSO, then 1:10 in serum-free RPMI media 1640. A volume of 20 μL of the resulting 0.5 μM (1 μmol equiv/L) drug solution was immediately added to the t=0 min lane. The remaining lanes were treated at 5 min intervals with 20 μL of the remaining drug solution, which was held at 25° C. between additions. Additionally, one lane was treated with 20 μL/well of serum-free RPMI media containing 10% DMSO (no drug) and one lane replaced with 200 μL/well of 1.5 M Tris buffer (no cells). Each lane was incubated at 37° C. for 3 h.

Structure (SMILES): COc1cccc2c1C(=O)c1c(O)c3c(c(O)c1C2=O)CC(O)(C(=O)CO)CC3OC1CC2C(OCN2CN2CO[C@@H]3C(C)O[C@H](OC4CC(O)(C(=O)CO)Cc5c(O)c6c(c(O)c54)C(=O)c4c(OC)cccc4C6=O)CC32)C(C)O1 (stereo partly shown) [DOXF, bis(3′-N-(3′-N,4′-O-methylenedoxorubicinyl))methane]
- survival rate of cells: less than 10%
